This test deals with MEF2 transcriptional activity. Put plainly: MEF2 transcriptional activity screen (Luciferase-MEF2 reporter in human neural progenitor cells). The class given is cell-based. The conditions noted are these: concentration for half-maximal activity derived from the hill equation model, read-out: qAC50.

As to `O=C(CCCCCCC(=O)Nc1ccccc1)NO` [vorinostat], the EC50 stood at 7.81 µM.

These data come from patent US20250161243A1, “MEF2 TRANSCRIPTIONAL ACTIVATORS TO TREAT NEUROLOGIC CONDITIONS” (The Scripps Research Institute, priority 2022, published 2025).
